These results are taken from publication PMC6927325.

Sequences of proteins named here, by UniProt entry; tags and fusion partners are left off. Residues count along the entry.
UniProt Q9UM73, residues 19-1620: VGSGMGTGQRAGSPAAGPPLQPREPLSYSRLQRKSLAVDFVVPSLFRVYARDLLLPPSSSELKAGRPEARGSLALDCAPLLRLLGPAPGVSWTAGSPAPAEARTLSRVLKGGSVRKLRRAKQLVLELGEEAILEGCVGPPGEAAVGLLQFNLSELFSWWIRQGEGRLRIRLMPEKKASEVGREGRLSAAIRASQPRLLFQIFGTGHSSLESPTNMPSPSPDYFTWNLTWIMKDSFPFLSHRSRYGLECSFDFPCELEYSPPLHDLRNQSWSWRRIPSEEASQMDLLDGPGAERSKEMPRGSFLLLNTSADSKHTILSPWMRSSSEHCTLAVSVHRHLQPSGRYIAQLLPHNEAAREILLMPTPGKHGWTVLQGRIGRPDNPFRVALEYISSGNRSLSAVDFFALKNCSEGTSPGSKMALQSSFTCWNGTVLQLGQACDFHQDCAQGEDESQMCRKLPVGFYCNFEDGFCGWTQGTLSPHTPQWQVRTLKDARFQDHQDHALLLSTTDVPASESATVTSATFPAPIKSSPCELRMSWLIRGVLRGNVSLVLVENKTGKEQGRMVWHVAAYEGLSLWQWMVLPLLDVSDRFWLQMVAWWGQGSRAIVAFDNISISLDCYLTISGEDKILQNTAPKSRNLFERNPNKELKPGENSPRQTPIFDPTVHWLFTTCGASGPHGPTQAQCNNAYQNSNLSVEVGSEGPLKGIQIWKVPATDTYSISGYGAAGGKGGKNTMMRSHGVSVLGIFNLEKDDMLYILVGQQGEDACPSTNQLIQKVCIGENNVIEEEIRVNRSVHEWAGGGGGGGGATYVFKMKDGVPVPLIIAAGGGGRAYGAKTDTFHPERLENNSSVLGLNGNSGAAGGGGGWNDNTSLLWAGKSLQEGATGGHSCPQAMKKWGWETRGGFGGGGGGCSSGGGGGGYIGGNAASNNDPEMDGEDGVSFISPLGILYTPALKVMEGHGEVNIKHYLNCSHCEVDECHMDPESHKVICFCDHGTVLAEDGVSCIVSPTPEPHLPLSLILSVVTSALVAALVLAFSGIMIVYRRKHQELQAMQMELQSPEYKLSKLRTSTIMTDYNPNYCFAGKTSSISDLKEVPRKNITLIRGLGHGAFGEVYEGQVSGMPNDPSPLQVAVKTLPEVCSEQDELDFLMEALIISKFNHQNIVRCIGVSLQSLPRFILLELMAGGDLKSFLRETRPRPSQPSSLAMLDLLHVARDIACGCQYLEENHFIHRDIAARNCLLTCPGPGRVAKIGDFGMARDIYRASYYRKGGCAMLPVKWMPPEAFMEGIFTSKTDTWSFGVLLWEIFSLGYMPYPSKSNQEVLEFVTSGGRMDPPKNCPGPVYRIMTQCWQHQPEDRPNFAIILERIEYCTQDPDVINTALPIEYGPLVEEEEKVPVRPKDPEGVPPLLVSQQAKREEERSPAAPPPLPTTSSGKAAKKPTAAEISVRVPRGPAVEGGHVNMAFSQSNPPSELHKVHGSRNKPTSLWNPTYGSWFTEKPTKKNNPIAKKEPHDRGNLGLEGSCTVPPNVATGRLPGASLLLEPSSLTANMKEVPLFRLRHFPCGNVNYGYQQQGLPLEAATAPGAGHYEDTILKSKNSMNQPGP

Assay [1] deals with anaplastic lymphoma kinase (ALK), wild type, endogenous in IMR-5 cells (human (endogenous in IMR-5)) (UniProt Q9UM73). As to the kind of experiment: co-IP; endogenous NUMB and ALK from IMR-5 neuroblastoma cells.
Assay [2] has as its target wild-type ALK ectopically expressed in HEK293 cells (HEK293/ALK stable cell line) (UniProt Q9UM73). Put plainly: co-IP; endogenous NUMB with ectopically expressed ALK in the HEK293/ALK stable cell line.

These are yes or no findings as the source states them, for the method shown. In cells and extracts the contact can be indirect. Some entries that bind do so weakly or less than the wild type.

B1: NUMB (endogenous, IMR-5 neuroblastoma cells) (protein, UniProt P49757 1-651)
chain: MNKLRQSFRRKKDVYVPEASRPHQWQTDEEGVRTGKCSFPVKYLGHVEVDESRGMHICEDAVKRLKAERKFFKGFFGKTGKKAVKAVLWVSADGLRVVDEKTKDLIVDQTIEKVSFCAPDRNFDRAFSYICRDGTTRRWICHCFMAVKDTGERLSHAVGCAFAACLERKQKREKECGVTATFDASRTTFTREGSFRVTTATEQAEREEIMKQMQDAKKAETDKIVVGSSVAPGNTAPSPSSPTSPTSDATTSLEMNNPHAIPRRHAPIEQLARQGSFRGFPALSQKMSPFKRQLSLRINELPSTMQRKTDFPIKNAVPEVEGEAESISSLCSQITNAFSTPEDPFSSAPMTKPVTVVAPQSPTFQANGTDSAFHVLAKPAHTALAPVAMPVRETNPWAHAPDAANKEIAATCSGTEWGQSSGAASPGLFQAGHRRTPSEADRWLEEVSKSVRAQQPQASAAPLQPVLQPPPPTAISQPASPFQGNAFLTSQPVPVGVVPALQPAFVPAQSYPVANGMPYPAPNVPVVGITPSQMVANVFGTAGHPQAAHPHQSPSLVRQQTFPHYEASSATTSPFFKPPAQHLNGSAAFNGVDDGRLASADRHTEVPTGTCPVDPFEAQWAALENKSKQRTNPSPTNPFSSDLQKTFEIEL
B1: the binding entry in assay [1] is listed as “binds”.

B2: NUMB (endogenous, HEK293/ALK cells) (protein, UniProt P49757 1-651)
chain: B1 chain
On to B2, for which, in assay [2], the binding entry is given as “binds”.
